Experimental data: PubChem BioAssay AID2099 (Broad Institute, 2009)
The campaign covered roughly 330,000 compounds. About 230 (0.07%) were called active. Inconclusive means that the source gave no clear call. Such entries were picked first, then a sample of the others.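 The calls were made as follows: active = more than half of a compound's replicate wells show inhibition beyond 50%, single wells judged on their own value; inconclusive = some, but no more than half, of replicates pass 50% inhibition; inactive = no replicate passes 50% inhibition.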 Non-standard residues stand in square brackets, D forms with d. Residues, ends and D or L forms follow the SMILES beside them. NMeY = CN[C@@H](Cc1ccc(O)cc1)C(=O)O; NMeF = CN[C@@H](Cc1ccccc1)C(=O)O; 2Abz = Nc1ccccc1C(=O)O

Sequences of proteins named here, by UniProt entry; tags and fusion partners are left off. Residues count along the entry.
UniProt Q9H3R0, 1-420 limits assumed: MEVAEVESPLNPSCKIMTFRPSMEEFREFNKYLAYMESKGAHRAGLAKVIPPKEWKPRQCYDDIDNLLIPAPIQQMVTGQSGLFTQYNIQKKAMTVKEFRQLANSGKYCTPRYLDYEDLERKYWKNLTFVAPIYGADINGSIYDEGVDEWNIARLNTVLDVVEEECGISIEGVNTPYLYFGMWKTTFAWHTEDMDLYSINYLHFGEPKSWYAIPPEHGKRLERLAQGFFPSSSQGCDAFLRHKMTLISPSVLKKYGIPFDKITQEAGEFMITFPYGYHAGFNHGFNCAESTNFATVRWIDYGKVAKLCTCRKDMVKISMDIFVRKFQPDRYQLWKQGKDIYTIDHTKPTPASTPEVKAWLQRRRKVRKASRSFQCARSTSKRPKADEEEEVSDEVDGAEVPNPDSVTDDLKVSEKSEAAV

Target: Lysine-specific demethylase 4C (Homo sapiens) (UniProt Q9H3R0)
Experiment: inhibitors of GASC-1 histone demethylase, primary screen, biochemical, fluorescence, DELFIA europium (AID 2099);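 also: signal counts dimethyl H3K9 product captured on neutravidin plate; 0% = median of DMSO wells and 100% = 0.3 times that DMSO median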
Settings: GST-JMJD2C(1-420) H3K9me3 demethylation, at 2.35 µM, hits give high values

SMILES | inhibition
C#CCOCCOCCOCCNc1nc(N2CCN(C(=O)CCCCCCCCCCNC(=O)[C@H](CO)n3cc(CCCSC)nn3)CC2)nc(N2CCN(C(=O)CCCCCCCCCCNC(=O)[C@H](CCCN=C(N)N)n3cc(C[C@@H](C)CC)nn3)CC2)n1 | active: 57.4%
Nc1cccc(-n2nnnc2CN2CCOCC2)c1 | inconclusive: -87.4%
O=C(O)CCc1ccc(-c2ccc(F)cc2)n1CC(=O)O | inactive: -4.04%
CCOC(=O)c1c(NC(=O)C2CCCO2)sc2c1CCC2 (centres undefined) | active: 52.4%
CN(Cc1ccccc1)C(=O)c1ccc([N+](=O)[O-])o1 | inactive: 1.38%
O=C(Nc1nc(-c2ccccc2)cs1)c1ccc(N2CCOCC2)c([N+](=O)[O-])c1 | inactive: 6.67%
N=c1n(CC(=O)c2cccc([N+](=O)[O-])c2)c2ccccc2n1Cc1ccccc1 | active: 60.9%
O=C(Cn1nnc(-c2cccs2)n1)N1CCOCC1 | inconclusive: -52.4%
O=C(CSCc1nc2scc(-c3cccs3)c2c(=O)[nH]1)Nc1ccccn1 | inactive: 2.21%
COc1ccc(NC(=O)CN(C)Cc2cccs2)cc1Cl | inactive: -3.01%
CC12CCC(=O)N1C(C(=O)N1CCN(S(=O)(=O)c3cccc(C(F)(F)F)c3)CC1)CS2 (centres undefined) | inactive: 15.9%
CCOC(=O)c1nn(-c2ccc(C)cc2)c(=O)cc1OCC(=O)Nc1cc(C)ccc1OC | inactive: -14.7%
CCCCn1c(N)c(N(CCOC)C(=O)C(C)N2C(=O)c3ccccc3C2=O)c(=O)[nH]c1=O (centres undefined) | inactive: -5.72%
CC(CN1CCCC1)OC(=O)COc1ccccc1 (centres undefined) | active: 50.1%
OC(c1cc(-c2ccc(Cl)cc2)nc2ccccc12)C1CCCCN1 (centres undefined) | inactive: -11.2%
CCOc1ccc(NC(=O)CN(C)CC(=O)Nc2cc(Cl)ccc2C#N)cc1OCC | active: 59.8%
COc1cccc(-n2nnc3c(=O)n(Cc4ccc(Br)cc4)cnc32)c1 | inconclusive: -22.1%
COc1ccc(CCN2CC(C(=O)NCC(=O)Nc3ccc(F)c(F)c3)CC2=O)cc1OC (centres undefined) | inconclusive: -57.6%
COc1ccc(C(=O)NC2CC3CCCC(C2)N3Cc2ccccc2)cc1 (centres undefined) | active: 60%
COCC(COS(N)(=O)=O)C(C)C (centres undefined) | inconclusive: -64.5%
CCOC(=O)c1c(C)[nH]c(C(=O)OCC(=O)Nc2cccnc2Cl)c1C | inactive: 6.68%

In the list so far, three have fluorine.
SMILES | inhibition
O=C(O)CCc1ccc(-c2ccc(F)cc2)n1CC(=O)O | inactive: -4.04%
CC12CCC(=O)N1C(C(=O)N1CCN(S(=O)(=O)c3cccc(C(F)(F)F)c3)CC1)CS2 (centres undefined) | inactive: 15.9%
COc1ccc(CCN2CC(C(=O)NCC(=O)Nc3ccc(F)c(F)c3)CC2=O)cc1OC (centres undefined) | inconclusive: -57.6%

Four compounds already listed, arranged by molecular weight, falling:
SMILES | inhibition
CC12CCC(=O)N1C(C(=O)N1CCN(S(=O)(=O)c3cccc(C(F)(F)F)c3)CC1)CS2 (centres undefined) | inactive: 15.9%
COc1ccc(CCN2CC(C(=O)NCC(=O)Nc3ccc(F)c(F)c3)CC2=O)cc1OC (centres undefined) | inconclusive: -57.6%
COc1ccc(C(=O)NC2CC3CCCC(C2)N3Cc2ccccc2)cc1 (centres undefined) | active: 60%
COCC(COS(N)(=O)=O)C(C)C (centres undefined) | inconclusive: -64.5%

The list continues:

SMILES | inhibition
CCCCSc1ncc(C(=O)OCC)c(N)n1 | inactive: -14%
NC(=O)c1c(NC(=O)CN2CCN(S(=O)(=O)c3ccccc3)CC2)sc2c1CCC2 | inactive: 10.9%
CC1=NN2C(=N)/C(=C\c3cc(C)n(-c4ccccc4)c3C)C(=O)N=C2S1 | inconclusive: -57%
Cc1ccc(O)c(-c2cc3ccccc3[nH]2)c1 | inconclusive: -51%
O=C(Oc1c(Cl)cc(Cl)c2cccnc12)c1cccs1 | inactive: 4.19%
Cc1c(C(=O)NCc2cccnc2)oc2ccc(S(=O)(=O)N3CCCCC3)cc12 | inconclusive: -131%
Cc1oc2cc3oc(=O)c(CC(=O)N[C@H](C(=O)N[C@@H](C(=O)O)c4ccccc4)C(C)C)c(C)c3cc2c1C | inconclusive: -72.3%
O=C(Cc1csc(Nc2nc(=S)[nH]c3ccccc23)n1)NCc1ccc(Cl)cc1 | inconclusive: -115%
CC(C)C1COS(=O)(=O)NC1CC(=O)SC(C)(C)C (centres undefined) | inconclusive: -53.3%
COc1ccc(S(=O)(=O)N2CCC(C(=O)Nc3ccccc3C)CC2)c2cccnc12 | inconclusive: -52%
CCN(CCO)C(=S)Nc1cc(C(=O)OC)ccc1C(=O)OC | inconclusive: -56.9%
C(=N\NC1=Nc2cccc3cccc1c23)/c1ccccn1 | inconclusive: -85.7%
Cc1ccc(F)cc1CNC(=O)C1CCC(=O)N(CCc2ccccc2)C1 (centres undefined) | inactive: -4.1%
CC1C(=O)N(Cc2ccc([N+](=O)[O-])cc2)c2ccccc2N1C(=O)C1CC1 (centres undefined) | active: 60.3%
COc1ccc(CCNC(=O)c2cc(Cl)nc3ccccc23)cc1 | inconclusive: -54.9%
COC(=O)C(Cc1ccccc1)NC(=O)COc1ccc(C(C)(C)C)cc1 (centres undefined) | active: 60.8%
O=C(O[C@@H]1OC2COC(=O)c3cc(O)c(O)c(O)c3-c3c(cc(O)c(O)c3O)C(=O)O[C@@H]([C@H]1O)[C@@H]2O)c1cc(O)c(O)c(O)c1 | inconclusive: -157%
Cc1csc(N)n1 | inactive: -2.24%
O=C1CCc2cc(S(=O)(=O)NCc3ccccc3Cl)cc3c2N1CC3 | inconclusive: -91.9%
CCN(CC(=O)Nc1cc(Cl)ccc1C)C(=O)CSCc1c(C)noc1C | inactive: -3.01%
CCCCOc1ncnc2c1[nH]c1ccccc12 | inactive: 23.6%

SMILES | inhibition
CC1Nc2ncnc(N3CCN(c4ccccc4)CC3)c2N(Cc2ccccc2)C1=O (centres undefined) | inconclusive: -54.4%
CCOC(=O)[C@H]1[C@H]2COc3ccccc3[C@@H]2N2C(=O)[C@@H](CO)NC(=O)[C@@]12C | inactive: -3.72%
Cc1ccc(S(=O)(=O)Nc2cccc(C(=O)NCCCn3ccnc3)c2)cc1F | inconclusive: -48.9%
Cc1ccc2cc(C(c3nnnn3Cc3ccccc3)N3CCN(c4ccccc4)CC3)c(=O)[nH]c2c1 (centres undefined) | inconclusive: -78.6%
Cc1cc(C)cc(N(C(=O)c2snc(C(N)=O)c2N)C(C(=O)NCC2CCCO2)c2cccs2)c1 (centres undefined) | inconclusive: -80.5%
CNS(=O)(=O)c1ccc2nc(NC(=O)c3ccc(N4C(=O)CCC4=O)cc3)sc2c1 | inconclusive: -52.8%
Cc1cc(-c2cc(C(=O)NCc3ccccc3)on2)nc(S(C)(=O)=O)n1 | inactive: 7.81%
CCN1C(=O)CC(c2ccco2)Sc2ccccc21 (centres undefined) | inconclusive: -23.4%
CSCC[C@H](NC(=O)N1CCn2c1nc1ccccc12)C(=O)N[C@@H](C(=O)O)c1ccccc1 | inconclusive: -407%
COc1cc([C@H]2c3[nH]c4ccccc4c3C[C@H]3C(=O)N4[C@@H](c5cc(OC)c(OC)c(OC)c5)c5[nH]c6ccccc6c5C[C@H]4C(=O)N23)cc(OC)c1OC | inconclusive: -277%
Cc1cccc(N2CCN(C(=O)C3CCN(S(=O)(=O)c4cccc5nsnc45)CC3)CC2C)c1 (centres undefined) | inconclusive: -90.3%
N#Cc1c(N2CCCCC2)nc(N)c2c(N)nc(SCC(=O)O)cc12 | active: 65.6%
COc1ccc(-c2cnnc(N/N=C/c3ccc(O)c(O)c3)n2)cc1 | inconclusive: -59.3%
O=C1CC(c2ccco2)CC(O)=C1C=Nc1cc(Cl)ccc1O (centres undefined) | inactive: 6.77%
CC(C)n1c(SCC(=O)Nc2nncs2)nnc1C1CC1 | inconclusive: -55.4%
CC(C)C[C@@H]1NC(=O)[C@H](Cc2ccccc2)N(C)C(=O)[C@H](C)NC(=O)c2ccccc2NC(=O)[C@H](Cc2ccc(O)cc2)N(C)C1=O (cyclo([2Abz]A[NMeF]L[NMeY])) | inconclusive: -223%
CN(c1ccc(OCC(=O)N2CCCCC2)cc1)S(=O)(=O)c1cccs1 | active: 64.5%
O=C(c1ccc(OC2CCN(CCc3ccccc3)CC2)cc1)N1CCCC(CCCO)C1 (centres undefined) | inactive: 3.29%
O=C(Nc1ccc(Cl)cn1)c1ccc2c(Cl)c3c(nc2c1)CCC3 | inactive: -4.38%
COc1ccccc1Oc1ccc2c(c1)C(=O)N(c1ccc(O)cc1)C2=O | inactive: -0.239%
CCN(C(=O)c1cc2cc(OC)ccc2oc1=O)c1ccccc1 | inconclusive: -169%

SMILES | inhibition
COCCCn1c(=O)c2ccccc2n(Cc2ccccc2C)c1=O | inactive: 0.575%
Cc1cc(C(=O)OCC(=O)c2ccc(Br)s2)no1 | inactive: 8.02%
CCOc1ccc(-c2nnn(CC(=O)Nc3cc(OC)cc(OC)c3)n2)cc1OCC | inconclusive: -26.1%
CC(C)N1CC(C(=O)Nc2ccc(Br)c(Cl)c2)CC1=O (centres undefined) | active: 69.5%
O=C(CSc1ccc2nnc(-c3ccccc3)n2n1)N1CCCCC1 | inconclusive: -64%
CC(C)(C)c1ccc(-c2nc(-c3ccncc3)no2)cc1 | inactive: -3.12%
CC(=O)c1ccc(S(=O)(=O)NCCC(=O)OCC(=O)N2CCCC2=O)cc1 | inactive: -4.17%
COc1ccc(/C=C/C(=O)OCC(=O)Nc2ccc3[nH]c(=O)[nH]c3c2)cc1OC | inconclusive: -100%
CC(=O)Nc1ccc(S(=O)(=O)NC2CC(=O)N(c3ccc(C)cc3)C2)cc1 (centres undefined) | inconclusive: -67.5%
COc1ccc(N2CCN(C(=O)C(NC(=O)c3c(F)cccc3F)C(C)C)CC2)cc1 (centres undefined) | inactive: 5.97%
COCCNC(=O)C(c1ccncc1)N(C(=O)c1sc(C)nc1C)c1cccc(C)c1 (centres undefined) | inconclusive: -56.6%
CC(=O)c1cccc(N/C=C\c2nnnn2-c2ccc(F)cc2)c1 | inactive: 1.73%
CNc1nc(C(=O)O)nc(N2CCOCC2)n1 | inconclusive: -23.4%
CC(=O)c1c(O)cc(C(C)C)n(-c2ccccc2)c1=O | inactive: -5.67%
C=CCN1CCc2c(cc(O)c(O)c2Cl)C(c2ccccc2)C1 (centres undefined) | inactive: -2.9%
CCSc1nnc(NC(=O)Cc2ccccc2OC)s1 | inconclusive: -34.9%
O=C(COC(=O)CCN1C(=O)C2CC=CCC2C1=O)NCCc1ccccc1 (centres undefined) | inactive: -12.6%
O=C(O)CCCC(=O)NS(=O)(=O)c1ccc(Cl)cc1 | inconclusive: -162%
Fc1ccc(-[n+]2nc(Nc3ccccc3)sc2-c2ccc(OCc3ccccc3)cc2)cc1 | inconclusive: -204%
CCN1CCN(CC(O)COC(C)C)CC1 (centres undefined) | inconclusive: -35.3%
CCC1(c2ccc(F)cc2)NC(=O)N(CC(=O)Nc2cccc(S(=O)(=O)N3CCCCC3)c2)C1=O (centres undefined) | inconclusive: -23%
